We go through two substances from publication PMC8582450.

Sequences of proteins named here, by UniProt entry; tags and fusion partners are left off.
UniProt P46940: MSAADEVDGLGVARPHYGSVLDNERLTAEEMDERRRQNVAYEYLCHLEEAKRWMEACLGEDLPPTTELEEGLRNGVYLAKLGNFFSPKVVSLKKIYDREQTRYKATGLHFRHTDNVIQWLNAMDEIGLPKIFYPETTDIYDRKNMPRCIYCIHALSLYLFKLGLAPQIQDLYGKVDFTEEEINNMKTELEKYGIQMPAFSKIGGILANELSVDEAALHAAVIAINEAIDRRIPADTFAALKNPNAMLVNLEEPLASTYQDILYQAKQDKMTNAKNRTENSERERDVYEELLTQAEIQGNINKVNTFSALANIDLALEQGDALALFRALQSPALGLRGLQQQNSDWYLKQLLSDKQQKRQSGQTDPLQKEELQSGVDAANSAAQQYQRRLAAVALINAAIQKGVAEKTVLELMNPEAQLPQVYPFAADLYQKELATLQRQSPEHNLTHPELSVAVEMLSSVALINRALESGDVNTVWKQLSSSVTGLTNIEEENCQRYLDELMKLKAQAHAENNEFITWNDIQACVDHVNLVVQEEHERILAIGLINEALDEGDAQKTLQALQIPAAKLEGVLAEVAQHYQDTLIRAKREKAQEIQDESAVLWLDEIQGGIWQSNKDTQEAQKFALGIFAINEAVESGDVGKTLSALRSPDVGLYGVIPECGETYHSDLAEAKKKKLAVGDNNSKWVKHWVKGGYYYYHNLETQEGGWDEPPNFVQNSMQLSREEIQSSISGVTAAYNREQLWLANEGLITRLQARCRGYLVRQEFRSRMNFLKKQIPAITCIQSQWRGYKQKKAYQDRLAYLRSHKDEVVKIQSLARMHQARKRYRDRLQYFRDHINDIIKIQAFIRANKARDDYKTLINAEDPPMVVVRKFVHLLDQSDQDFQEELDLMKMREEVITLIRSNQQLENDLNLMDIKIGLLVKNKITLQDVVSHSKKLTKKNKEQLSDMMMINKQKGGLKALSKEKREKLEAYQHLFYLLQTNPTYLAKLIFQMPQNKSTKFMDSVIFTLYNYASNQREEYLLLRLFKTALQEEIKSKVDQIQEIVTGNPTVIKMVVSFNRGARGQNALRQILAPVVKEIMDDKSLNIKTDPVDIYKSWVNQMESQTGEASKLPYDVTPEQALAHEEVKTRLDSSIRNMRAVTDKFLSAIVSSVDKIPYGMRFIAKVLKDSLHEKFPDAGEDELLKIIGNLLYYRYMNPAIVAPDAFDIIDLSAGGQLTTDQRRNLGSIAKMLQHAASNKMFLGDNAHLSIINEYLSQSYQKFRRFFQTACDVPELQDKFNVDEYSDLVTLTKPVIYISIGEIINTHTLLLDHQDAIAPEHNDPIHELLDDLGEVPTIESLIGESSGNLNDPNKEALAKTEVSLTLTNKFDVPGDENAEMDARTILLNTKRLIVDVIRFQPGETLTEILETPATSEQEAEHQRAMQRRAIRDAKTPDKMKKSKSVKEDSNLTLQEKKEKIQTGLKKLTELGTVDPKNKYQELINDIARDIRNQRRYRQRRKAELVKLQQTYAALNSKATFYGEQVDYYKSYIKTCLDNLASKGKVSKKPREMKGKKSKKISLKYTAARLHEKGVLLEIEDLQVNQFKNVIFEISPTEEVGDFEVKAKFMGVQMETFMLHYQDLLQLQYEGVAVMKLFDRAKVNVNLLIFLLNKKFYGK
UniProt P12004: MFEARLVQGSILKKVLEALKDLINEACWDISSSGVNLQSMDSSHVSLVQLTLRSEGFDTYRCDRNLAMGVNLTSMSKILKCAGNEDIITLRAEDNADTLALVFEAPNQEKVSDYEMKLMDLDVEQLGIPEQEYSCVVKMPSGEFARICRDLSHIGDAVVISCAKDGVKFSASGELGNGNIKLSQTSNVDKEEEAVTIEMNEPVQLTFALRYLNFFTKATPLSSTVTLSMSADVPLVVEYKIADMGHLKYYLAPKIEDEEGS

Results are given in words; binding and its absence hold for the method and conditions named. Binding seen in cells or lysates may run through a third protein. Here binding means that the protein was enriched with, or labelled near, the bait; the list need not be complete. No binding means not detected with the bait. Where a sequence is shown, tags or fusion partners need not be part of it.

In assay [1] the target is T1, HA-NIS (full-length sodium–iodide symporter with a triple HA tag in the fourth extracellular loop) (human) (UniProt Q92911).
T1 sequence: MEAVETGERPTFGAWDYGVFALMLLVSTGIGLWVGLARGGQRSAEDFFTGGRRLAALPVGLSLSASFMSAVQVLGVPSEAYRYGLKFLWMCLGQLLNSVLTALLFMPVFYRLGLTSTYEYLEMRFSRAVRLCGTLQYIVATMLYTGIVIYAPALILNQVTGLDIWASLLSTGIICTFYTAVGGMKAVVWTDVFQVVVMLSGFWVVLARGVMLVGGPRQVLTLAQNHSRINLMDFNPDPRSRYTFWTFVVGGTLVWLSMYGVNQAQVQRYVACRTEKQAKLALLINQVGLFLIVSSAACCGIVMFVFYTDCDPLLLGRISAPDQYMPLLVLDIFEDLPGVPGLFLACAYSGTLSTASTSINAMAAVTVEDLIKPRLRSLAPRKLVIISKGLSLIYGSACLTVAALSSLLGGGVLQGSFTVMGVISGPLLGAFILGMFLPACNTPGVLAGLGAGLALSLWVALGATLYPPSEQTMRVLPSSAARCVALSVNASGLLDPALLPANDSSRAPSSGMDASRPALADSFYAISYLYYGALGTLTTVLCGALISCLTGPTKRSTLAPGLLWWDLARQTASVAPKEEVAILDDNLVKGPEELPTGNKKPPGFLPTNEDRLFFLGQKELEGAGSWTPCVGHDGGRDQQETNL
In words: affinity purification with mass spectrometry; WC-IP of HA-NIS from whole cell lysates of HA-NIS-TPC1 cells; nanoLC-MS/MS, triplicates; high-confidence candidates filtered against control IgG IPs.

Assay [2] concerns the target T1, HA-NIS (full-length sodium–iodide symporter with a triple HA tag in the fourth extracellular loop) (human). The assay is described as follows: affinity purification with mass spectrometry; PM-IP of HA-NIS from intact labelled HA-NIS-TPC1 cells; nanoLC-MS/MS, triplicates; high-confidence candidates filtered against control IgG IPs.

In the case of “IQGAP1 (RAS GTPase-activating-like protein IQGAP1) (from UniProt P46940 1-1657)”, the binding result in assay [1] and in assay [2] was “binds” each time.

On to “PCNA (proliferating cell nuclear antigen) (from UniProt P12004 1-261)”, for which the binding result in assay [1] and in assay [2] was “no binding” throughout.
